These are yes or no findings as the source states them, for the method shown. Some entries that bind do so weakly or less than the wild type.
Target: 488-SNAP-IQGAP1 (full-length human IQGAP1, SNAP-tagged, labelled with SNAP-Surface 488) (human) (UniProt P46940)
Test: multi-colour TIRF microscopy, plus-end occupancy (survival plots); 1 µM actin (10% Alexa 647 label) polymerising with 5 µM PFN1, 1 nM 549-SNAP-mDia1 construct and 1 nM 488-SNAP-IQGAP1; 5-s intervals for 15 min; both purified

Amino acid sequences for entries named in this document (tags omitted).
UniProt P46940: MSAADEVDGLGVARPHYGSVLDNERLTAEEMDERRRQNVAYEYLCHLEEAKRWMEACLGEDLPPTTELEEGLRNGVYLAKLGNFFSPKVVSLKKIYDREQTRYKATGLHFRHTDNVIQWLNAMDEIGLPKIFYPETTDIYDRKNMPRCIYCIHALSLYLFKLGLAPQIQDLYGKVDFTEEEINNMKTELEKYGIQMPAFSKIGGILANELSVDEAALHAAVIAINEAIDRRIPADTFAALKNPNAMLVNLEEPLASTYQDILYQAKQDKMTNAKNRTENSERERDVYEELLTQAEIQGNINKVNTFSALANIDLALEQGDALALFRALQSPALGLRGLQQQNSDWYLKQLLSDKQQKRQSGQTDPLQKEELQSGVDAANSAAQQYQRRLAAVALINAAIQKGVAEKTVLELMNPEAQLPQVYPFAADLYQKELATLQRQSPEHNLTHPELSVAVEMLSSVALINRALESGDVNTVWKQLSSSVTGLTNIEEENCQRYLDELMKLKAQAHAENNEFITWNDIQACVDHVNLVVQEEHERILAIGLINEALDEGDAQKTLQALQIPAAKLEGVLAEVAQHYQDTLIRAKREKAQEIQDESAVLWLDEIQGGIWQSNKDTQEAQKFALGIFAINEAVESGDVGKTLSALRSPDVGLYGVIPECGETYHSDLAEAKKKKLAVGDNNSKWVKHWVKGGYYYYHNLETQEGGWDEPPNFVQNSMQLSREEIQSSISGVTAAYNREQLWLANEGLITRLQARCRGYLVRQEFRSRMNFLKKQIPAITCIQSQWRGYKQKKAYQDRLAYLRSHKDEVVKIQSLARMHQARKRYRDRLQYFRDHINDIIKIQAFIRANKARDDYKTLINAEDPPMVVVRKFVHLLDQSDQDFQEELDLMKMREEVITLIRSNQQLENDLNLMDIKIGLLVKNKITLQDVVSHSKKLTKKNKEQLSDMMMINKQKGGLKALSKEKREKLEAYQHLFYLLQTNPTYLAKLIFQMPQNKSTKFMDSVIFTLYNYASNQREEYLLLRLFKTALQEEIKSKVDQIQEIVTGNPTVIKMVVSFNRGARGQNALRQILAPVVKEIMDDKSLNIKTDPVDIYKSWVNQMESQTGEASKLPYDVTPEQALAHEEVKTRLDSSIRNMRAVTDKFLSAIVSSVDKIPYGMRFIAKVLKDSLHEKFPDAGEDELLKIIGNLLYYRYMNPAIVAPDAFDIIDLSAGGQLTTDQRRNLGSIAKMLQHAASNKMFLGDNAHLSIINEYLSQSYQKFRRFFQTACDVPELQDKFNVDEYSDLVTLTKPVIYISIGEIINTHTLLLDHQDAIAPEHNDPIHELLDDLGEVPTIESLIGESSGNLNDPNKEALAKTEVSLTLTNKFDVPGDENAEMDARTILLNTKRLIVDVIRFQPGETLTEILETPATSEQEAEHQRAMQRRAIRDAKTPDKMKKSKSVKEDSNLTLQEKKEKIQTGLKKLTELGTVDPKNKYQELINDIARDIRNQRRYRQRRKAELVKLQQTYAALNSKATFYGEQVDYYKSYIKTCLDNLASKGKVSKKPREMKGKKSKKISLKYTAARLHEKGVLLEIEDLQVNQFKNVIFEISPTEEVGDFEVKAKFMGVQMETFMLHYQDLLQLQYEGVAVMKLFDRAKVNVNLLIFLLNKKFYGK

549-SNAP-mDia1(ΔDAD) (amino acids 1-1,175) (from UniProt O08808 1-1175) (domain or fragment)
binding: binds

— PMC11117073
